{"source": "PubChem BioAssay AID540276", "about": "(National Center for Advancing Translational Sciences (NCATS), 2011)", "note": "Values joined by “and” are separate entries in the source; they are usually repeats but may differ in a detail not shown here. Equal values may be shown once. In all, about 300,000 compounds went through this assay and about 5,400 (1.8%) were called active. The inconclusive results got no clear call from the source; some entries with a clear call stand among them for comparison. Calls come from the whole dose curve; tested in HEK293 cells. A potency beside an inconclusive call is a rough fit, not a confirmed value. Potency is the fitted concentration of half-maximal effect.", "data": [{"assay": "qHTS for inhibitors of binding or entry into cells for Marburg Virus", "conditions": "Marburg virus pseudotyped entry inhibition, cell reporter; series mostly up to 37.8 µM", "values": [{"smiles": "Cn1c(SCC2CCCCC2)nnc1-c1ccncc1", "Potency": "inconclusive: 2.06 µM [activator, partial curve, poor fit]"}, {"smiles": "Nc1nsc2ccccc12", "Potency": "inconclusive: 23.1 µM [inhibitor, partial curve, poor fit]"}, {"smiles": "Cc1ccccc1CN1CCC(CNC(=O)Nc2ccc(F)cc2F)CC1", "Potency": "inconclusive: 35.5 µM [inhibitor, single point]"}, {"smiles": "Oc1ccccc1-c1cc(-c2ccccc2Cl)[nH]n1", "Potency": "inactive"}, {"smiles": "CC(OC(=O)c1cc(Br)ccc1O)C(=O)NCc1ccc2c(c1)OCO2", "note": "(stereo unspecified)", "Potency": "inactive"}, {"smiles": "CCN(CC)S(=O)(=O)c1ccc2[nH]cc(C(=O)NCCC3=CCCCC3)c(=O)c2c1", "Potency": "active: 11.2 µM"}, {"smiles": "C=CCn1c(O)c(N=NC(=O)c2ccccc2NS(=O)(=O)c2cccs2)c2ccccc21", "Potency": "inconclusive: 0.1 µM [activator, full curve, poor fit]"}, {"smiles": "COC(=O)c1ccc(NC(=O)c2cc(-c3ccccn3)nc3ccccc23)cc1", "Potency": "inactive"}, {"smiles": "c1ccc(-c2ccccc2-c2nc(-c3cccnc3)no2)cc1", "Potency": "inconclusive: 20 µM [inhibitor, single point]"}, {"smiles": "Cn1cnc([N+](=O)[O-])c1S(=O)(=O)c1ccc(Cl)cc1", "Potency": "inconclusive: 12.6 µM [inhibitor, single point]"}, {"smiles": "C=CCSc1nnc(-c2ccccc2N=Cc2c(C)[nH]n(-c3ccccc3)c2=O)c(=O)[nH]1", "Potency": "inconclusive: 6.31 µM [activator, single point]"}, {"smiles": "N#Cc1cc(C(=O)c2cc(Br)ccc2O)cn(C2CCCCC2)c1=O", "Potency": "inconclusive: 1.46 µM [inhibitor, partial curve]"}, {"smiles": "Cn1ncc(Cl)c1C(=O)N1CCN(c2cccc(Cl)c2)CC1", "Potency": "inconclusive: 4.47 µM [inhibitor, single point]"}, {"smiles": "Cc1nn(-c2nc3ccccc3s2)c(N)c1Sc1ccc(F)cc1", "Potency": "inconclusive: 1.83 µM [activator, partial curve, poor fit]"}, {"smiles": "CCn1c(SCC(=O)NNC(=O)c2ccc(C)cc2)nnc1-c1ccco1", "Potency": "inconclusive: 5.62 µM [activator, single point]"}, {"smiles": "Cc1cc(C(=O)Nc2cccc(NC(=O)c3ccco3)c2)ccc1[N+](=O)[O-]", "Potency": "inactive"}, {"smiles": "O=C1c2ccccc2C(=O)N1CCCCON1C(=O)c2ccccc2C1=O", "Potency": "inactive"}, {"smiles": "Cc1ccc2c(CC(=O)Nc3ccc(S(=O)(=O)N4CCCCC4)cc3)coc2c1C", "Potency": "inconclusive: 35.5 µM [inhibitor, single point]"}, {"smiles": "CC(=O)OC1CC(C)N(C(=O)c2ccccc2)c2ccc(C)cc21", "note": "(stereo unspecified)", "Potency": "inconclusive: 0.92 µM [inhibitor, partial curve, poor fit]"}, {"smiles": "COc1ccc(C(=O)NCC(=O)OCC(=O)NCCC2=CCCCC2)cc1", "Potency": "inactive"}, {"smiles": "CC(C)NC(=O)c1ccc(COCC(F)(F)C(F)F)cc1", "Potency": "inactive"}, {"smiles": "CCOC(=O)c1cnc2c(-c3ccccc3)c(-c3ccccc3)nn2c1C", "Potency": "inconclusive: 25.1 µM [inhibitor, partial curve, poor fit]"}, {"smiles": "Cc1ccc(CS(=O)(=O)c2ncc(Cl)c(C(=O)Nc3nnc(C(C)C)s3)n2)cc1", "Potency": "inconclusive: 562 nM [inhibitor, full curve, poor fit] and inconclusive: 11.2 µM [inhibitor, partial curve, poor fit]"}, {"smiles": "COc1ccc(C)c2sc(N(CCN(C)C)C(=O)c3cccc(N4C(=O)CCC4=O)c3)nc12", "Potency": "inactive"}, {"smiles": "O=C(Oc1ccccc1)c1ccc(NC(=O)c2ccco2)cc1", "Potency": "inconclusive: 35.5 µM [activator, single point]"}, {"smiles": "O=C(CN1C(=O)CSc2ccc(S(=O)(=O)N3CCOCC3)cc21)NCc1ccc(Cl)cc1", "Potency": "inconclusive: 4.47 µM [inhibitor, full curve, poor fit]"}, {"smiles": "COc1ccc(N(C)C(=O)CCC(=O)Nc2ccc3nc(N4CCOCC4)cc(C)c3c2)c(OC)c1", "Potency": "inconclusive: 16.4 µM [inhibitor, partial curve]"}, {"smiles": "CC(C)CCNC(=O)C1CCN(C(=O)c2cc3sccc3n2Cc2ccc(Cl)cc2)CC1", "Potency": "inconclusive: 10 µM [inhibitor, partial curve, poor fit]"}, {"smiles": "Cc1cc(C(=O)NC2CC(C)(C)Cc3c2cnn3-c2ccc(F)cc2)no1", "note": "(stereo unspecified)", "Potency": "inconclusive: 0.562 µM [inhibitor, full curve, poor fit]"}, {"smiles": "CCc1ccc(-n2nc(CO)c(C(=O)NC)n2)cc1", "Potency": "inconclusive: 17.8 µM [activator, partial curve, poor fit]"}, {"smiles": "O=C(NC1CCCCCCC1)c1ccc(Br)cc1", "Potency": "inconclusive: 0.562 µM [activator, full curve, poor fit]"}, {"smiles": "CCOC(=O)COc1ccc(Br)cc1/C=C/c1[nH]c(=O)[nH]c(=O)c1[N+](=O)[O-]", "Potency": "inconclusive: 20.6 µM [inhibitor, partial curve, poor fit]"}, {"smiles": "COc1cccc(NC(=O)CN(C)C(=O)c2cccc(S(=O)(=O)N3CCN(c4ccc(F)cc4)CC3)c2)c1", "Potency": "inconclusive: 8.91 µM [inhibitor, partial curve, poor fit]"}, {"smiles": "COC(=O)c1ccccc1S(=O)(=O)N(Cc1ccco1)Cc1cc2cc(OC)ccc2[nH]c1=O", "Potency": "inconclusive: 20.6 µM [inhibitor, partial curve, poor fit]"}, {"smiles": "O=C(Cc1ccc2c(c1)OCCO2)N1CCN(S(=O)(=O)c2cccc(C(F)(F)F)c2)CC1", "Potency": "inactive"}, {"smiles": "COc1ccc(N(CC(=O)Nc2cccnc2)S(=O)(=O)c2ccccc2)cc1Cl", "Potency": "inconclusive: 6.31 µM [inhibitor, partial curve, poor fit]"}, {"smiles": "CCC(=O)N1c2ccc(S(=O)(=O)CCC(=O)Nc3ccc(OC)cc3OC)cc2CC1C", "note": "(stereo unspecified)", "Potency": "inactive"}, {"smiles": "CCc1ccc(C2c3c(-c4ccccc4O)n[nH]c3C(=O)N2Cc2cccnc2)cc1", "note": "(stereo unspecified)", "Potency": "inactive"}, {"smiles": "O=C(Nc1ccc2c(c1)OCO2)C1CC(c2ccc(F)cc2)=NO1", "note": "(stereo unspecified)", "Potency": "inconclusive: 3.66 µM [inhibitor, single point]"}, {"smiles": "CC(C)OC(=O)C1C(=O)CC(C)(O)C(C(=O)OC(C)C)C1c1ccc([N+](=O)[O-])cc1", "note": "(stereo unspecified)", "Potency": "inactive"}, {"smiles": "COc1cc(C(=O)NCC(c2ccc(F)cc2)N2CCOCC2)ccc1OCc1ccccc1Cl", "note": "(stereo unspecified)", "Potency": "inconclusive: 35.5 µM [inhibitor, single point]"}]}]}
